The text below walks through data of patent US20220220215A1.

These are yes or no findings as the source states them, for the method shown. A result given as binding can be weak or reduced; the word gives no strength.

The target of assay [1] is CD137 fused to a subunit of NanoLuc® luciferase, on cells (NanoBiT® assay) (human). Put plainly: NanoBiT cell based protein interaction assay.
Assay [2] deals with PD1 fused to a subunit of NanoLuc® luciferase, on cells (NanoBiT® assay) (human). Put plainly: NanoBiT cell based protein interaction assay.

B1: TPP-1409 CD137A-1GS-HSA2-1GS-PD138G7(G109D) (bispecific antibody)
chain: EVQLVESGGGLVQPGGSLRLSCAASGFTLSNYWMNWVRQAPGKGLEWVANINQDGSERYYVDSVKGRFTISRDNAKNSLYLQMNSLRAEDTAVYYCARGGEGYGVDHYGLDVSGQGTTVTVSSGGGGSEVQLVESGGGLVKPGGSLRLSCAASGFTFSNYNMNWVRQAPGKGLEWVSSISSAGTHIYYADSVKGRFTISRDNAKNSLYLQMNSLRAEDTAVYYCARDPHSTGWYKDFDYWGQGTLVTVSSGGGGSEVQLVESGGGVVRPGGSLRLSCAASGFTFDDYAMSWVRQAPGKGLEWVSGITWNGGSTGYADSVKDRFTISRDNAKNSLYLQMNSLRAEDTALYYCVRDKYSYAWSYDDFDIWGQGTMVTVSS
As to B1, the binding entry in assay [1] and in assay [2] was “binds” in each case.

B2: TPP-1439 PD138G7(G109D)-6GS-PD138G7(G109D)-6GS-CD137A-7-6GS-HSA2 (bispecific antibody)
chain: EVQLVESGGGVVRPGGSLRLSCAASGFTFDDYAMSWVRQAPGKGLEWVSGITWNGGSTGYADSVKDRFTISRDNAKNSLYLQMNSLRAEDTALYYCVRDKYSYAWSYDDFDIWGQGTMVTVSSGGGGSGGGGSGGGGSGGGGSGGGGSGGGGSEVQLVESGGGVVRPGGSLRLSCAASGFTFDDYAMSWVRQAPGKGLEWVSGITWNGGSTGYADSVKDRFTISRDNAKNSLYLQMNSLRAEDTALYYCVRDKYSYAWSYDDFDIWGQGTMVTVSSGGGGSGGGGSGGGGSGGGGSGGGGSGGGGSEVQLVESGGGLVQPGGSLRLSCAASGFTLSNYWMNWVRQAPGKGLEWVANINQDGSERYYVDSVKGRFTISRDNAKNSLYLQMNSLRAEDTAVYYCARGGEGYGVDHYGLDVSGQGTTVTVSSGGGGSGGGGSGGGGSGGGGSGGGGSGGGGSEVQLVESGGGLVKPGGSLRLSCAASGFTFSNYNMNWVRQAPGKGLEWVSSISSAGTHIYYADSVKGRFTISRDNAKNSLYLQMNSLRAEDTAVYYCARDPHSTGWYKDFDYWGQGTLVTVSS
With B2, the binding result in assay [1] and in assay [2] was “binds” in each case.

B3: TPP-1438 CD137A-6GS-HSA2-6GS-PD138G7(G109D)-6GS-PD138G7(G109D) (bispecific antibody)
chain: EVQLVESGGGLVQPGGSLRLSCAASGFTLSNYWMNWVRQAPGKGLEWVANINQDGSERYYVDSVKGRFTISRDNAKNSLYLQMNSLRAEDTAVYYCARGGEGYGVDHYGLDVSGQGTTVTVSSGGGGSGGGGSGGGGSGGGGSGGGGSGGGGSEVQLVESGGGLVKPGGSLRLSCAASGFTFSNYNMNWVRQAPGKGLEWVSSISSAGTHIYYADSVKGRFTISRDNAKNSLYLQMNSLRAEDTAVYYCARDPHSTGWYKDFDYWGQGTLVTVSSGGGGSGGGGSGGGGSGGGGSGGGGSGGGGSEVQLVESGGGVVRPGGSLRLSCAASGFTFDDYAMSWVRQAPGKGLEWVSGITWNGGSTGYADSVKDRFTISRDNAKNSLYLQMNSLRAEDTALYYCVRDKYSYAWSYDDFDIWGQGTMVTVSSGGGGSGGGGSGGGGSGGGGSGGGGSGGGGSEVQLVESGGGVVRPGGSLRLSCAASGFTFDDYAMSWVRQAPGKGLEWVSGITWNGGSTGYADSVKDRFTISRDNAKNSLYLQMNSLRAEDTALYYCVRDKYSYAWSYDDFDIWGQGTMVTVSS
Regarding B3, the binding result in assay [1] and in assay [2] was “binds” in each case.

B4: TPP-1290 PD138G7(G109D)-6GS-CD137A-6GS-HSA2 (bispecific antibody)
chain: EVQLVESGGGVVRPGGSLRLSCAASGFTFDDYAMSWVRQAPGKGLEWVSGITWNGGSTGYADSVKDRFTISRDNAKNSLYLQMNSLRAEDTALYYCVRDKYSYAWSYDDFDIWGQGTMVTVSSGGGGSGGGGSGGGGSGGGGSGGGGSGGGGSEVQLVESGGGLVQPGGSLRLSCAASGFTLSNYWMNWVRQAPGKGLEWVANINQDGSERYYVDSVKGRFTISRDNAKNSLYLQMNSLRAEDTAVYYCARGGEGYGVDHYGLDVSGQGTTVTVSSGGGGSGGGGSGGGGSGGGGSGGGGSGGGGSEVQLVESGGGLVKPGGSLRLSCAASGFTFSNYNMNWVRQAPGKGLEWVSSISSAGTHIYYADSVKGRFTISRDNAKNSLYLQMNSLRAEDTAVYYCARDPHSTGWYKDFDYWGQGTLVTVSS
Regarding B4, the binding result in assay [1] and in assay [2] was “binds” each time.

B5: TPP-1410 PD138G7(G109D)-1GS-CD137A-6GS-HSA2 (bispecific antibody)
chain: EVQLVESGGGVVRPGGSLRLSCAASGFTFDDYAMSWVRQAPGKGLEWVSGITWNGGSTGYADSVKDRFTISRDNAKNSLYLQMNSLRAEDTALYYCVRDKYSYAWSYDDFDIWGQGTMVTVSSGGGGSEVQLVESGGGLVQPGGSLRLSCAASGFTLSNYWMNWVRQAPGKGLEWVANINQDGSERYYVDSVKGRFTISRDNAKNSLYLQMNSLRAEDTAVYYCARGGEGYGVDHYGLDVSGQGTTVTVSSGGGGSGGGGSGGGGSGGGGSGGGGSGGGGSEVQLVESGGGLVKPGGSLRLSCAASGFTFSNYNMNWVRQAPGKGLEWVSSISSAGTHIYYADSVKGRFTISRDNAKNSLYLQMNSLRAEDTAVYYCARDPHSTGWYKDFDYWGQGTLVTVSS
As for B5, the binding entry in assay [1] and in assay [2] was “binds” in each case.

B6: TPP-1246 CD137A-6GS-HSA2-6GS-PD138G7(G109D) (bispecific antibody)
chain: EVQLVESGGGLVQPGGSLRLSCAASGFTLSNYWMNWVRQAPGKGLEWVANINQDGSERYYVDSVKGRFTISRDNAKNSLYLQMNSLRAEDTAVYYCARGGEGYGVDHYGLDVSGQGTTVTVSSGGGGSGGGGSGGGGSGGGGSGGGGSGGGGSEVQLVESGGGLVKPGGSLRLSCAASGFTFSNYNMNWVRQAPGKGLEWVSSISSAGTHIYYADSVKGRFTISRDNAKNSLYLQMNSLRAEDTAVYYCARDPHSTGWYKDFDYWGQGTLVTVSSGGGGSGGGGSGGGGSGGGGSGGGGSGGGGSEVQLVESGGGVVRPGGSLRLSCAASGFTFDDYAMSWVRQAPGKGLEWVSGITWNGGSTGYADSVKDRFTISRDNAKNSLYLQMNSLRAEDTALYYCVRDKYSYAWSYDDFDIWGQGTMVTVSS
In the case of B6, the binding result in assay [1] and in assay [2] was “binds” throughout.
